The values below come from the supplement of paper PMC10032668.

Chains of the proteins cited; added tags and fusions are not shown.
CALR, P27797, UniProt P27797, whole entry: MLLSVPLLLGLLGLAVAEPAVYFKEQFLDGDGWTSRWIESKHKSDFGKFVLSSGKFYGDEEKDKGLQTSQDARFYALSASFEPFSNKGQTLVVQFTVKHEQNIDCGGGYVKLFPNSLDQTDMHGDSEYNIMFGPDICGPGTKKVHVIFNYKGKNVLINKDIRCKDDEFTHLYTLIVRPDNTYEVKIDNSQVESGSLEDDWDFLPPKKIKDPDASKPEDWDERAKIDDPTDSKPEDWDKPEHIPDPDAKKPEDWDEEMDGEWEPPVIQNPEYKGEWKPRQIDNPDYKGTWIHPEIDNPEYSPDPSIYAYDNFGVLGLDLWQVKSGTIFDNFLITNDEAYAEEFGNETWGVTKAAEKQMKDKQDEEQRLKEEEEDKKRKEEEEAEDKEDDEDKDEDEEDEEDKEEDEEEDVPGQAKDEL
EPB41L3, Q9Y2J2, UniProt Q9Y2J2, whole entry: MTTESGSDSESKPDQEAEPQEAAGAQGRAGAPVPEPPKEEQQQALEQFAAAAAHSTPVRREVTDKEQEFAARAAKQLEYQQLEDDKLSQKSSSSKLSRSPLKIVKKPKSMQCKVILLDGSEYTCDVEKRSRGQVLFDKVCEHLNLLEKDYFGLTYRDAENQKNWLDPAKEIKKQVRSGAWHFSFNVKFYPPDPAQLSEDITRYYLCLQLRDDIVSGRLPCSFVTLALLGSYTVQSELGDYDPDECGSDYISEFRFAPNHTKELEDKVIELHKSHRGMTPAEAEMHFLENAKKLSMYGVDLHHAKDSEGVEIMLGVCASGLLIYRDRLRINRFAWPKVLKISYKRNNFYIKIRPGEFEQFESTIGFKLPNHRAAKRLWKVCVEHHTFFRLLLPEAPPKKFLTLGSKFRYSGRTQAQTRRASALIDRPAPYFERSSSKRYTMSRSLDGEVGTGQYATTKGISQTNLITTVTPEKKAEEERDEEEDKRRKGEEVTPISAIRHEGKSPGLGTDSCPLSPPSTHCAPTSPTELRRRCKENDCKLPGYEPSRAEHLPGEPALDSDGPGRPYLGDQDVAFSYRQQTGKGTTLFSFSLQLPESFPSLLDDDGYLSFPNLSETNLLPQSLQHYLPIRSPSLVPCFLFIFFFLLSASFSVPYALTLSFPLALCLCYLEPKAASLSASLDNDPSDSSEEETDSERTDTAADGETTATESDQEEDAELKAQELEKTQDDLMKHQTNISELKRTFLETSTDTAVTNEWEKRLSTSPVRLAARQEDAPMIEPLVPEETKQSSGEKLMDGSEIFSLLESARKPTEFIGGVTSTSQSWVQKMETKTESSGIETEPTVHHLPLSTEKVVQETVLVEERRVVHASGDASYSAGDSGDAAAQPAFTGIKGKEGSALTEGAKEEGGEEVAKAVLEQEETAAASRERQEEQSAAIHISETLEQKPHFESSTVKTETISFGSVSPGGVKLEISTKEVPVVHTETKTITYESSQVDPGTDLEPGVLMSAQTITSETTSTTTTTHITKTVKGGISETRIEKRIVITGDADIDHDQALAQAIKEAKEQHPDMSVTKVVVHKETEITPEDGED

± gives the standard deviation of the averaged measurements. The list shows a part of the results. The list holds hits alone, and they repeat only in part.

What all share (test): PRISMA enrichment of interactor (LFQ) in peptide spot vs all other peptide spots (log2 fold change); higher = stronger / more specific binding of the interactor to the peptide
Assay [1] concerns the target BAIAP2, Q9UQB8. As for the experimental part:
(§1)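 PRISMA: 15-aa overlapping tiles (offset 8 aa) of 60 microproteins, plus SOS1/GLUT1 control peptides, were spot-synthesized on cellulose membranes in triplicate. Membranes were incubated with benzonase-treated HEK293T lysate, and bound proteins were identified by LC-MS/MS with LFQ. Enrichment is the log2 fold change of each protein in one spot versus all other spots. Only interactors passing the significance cutoff are listed.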

The target of assay [2] is DDX47, Q9H0S4. Here is the method:
as §1

The target in assay [3] is HMGA1, P17096. As for the experimental part: as §1
Assay [4] has as its target IGHMBP2, P38935. Here is the method: as §1
Assay [5] addresses ITIH2, P19823. As for the experimental part: as §1
The target of assay [6] is KRT6B, P04259. Here is the method: as §1
The target of assay [7] is LRRFIP1, Q32MZ4. Here is the method: as §1
The target in assay [8] is MAP7, Q14244. As for the experimental part:
as §1

Assay [9] has as its target MRPL1, Q9BYD6. Here is the method: as §1
Assay [10] concerns the target RANBP1, P43487. Here is the method:
as §1

The target of assay [11] is BAG2, O95816. Here is the method:
as §1

In assay [12] the target is C1orf131, Q8NDD1. Here is the method: as §1
In assay [13] the target is CDCA7L, Q96GN5. As for the experimental part:
as §1

Assay [14] addresses CHMP2B, Q9UQN3. As for the experimental part: as §1
Assay [15] deals with COX6C, P09669. Here is the method:
as §1

In assay [16] the target is GLYR1, Q49A26. Here is the method:
as §1

The target of assay [17] is LAP3, P28838. As for the experimental part:
as §1

Assay [18] concerns the target MAP7D1, Q3KQU3. Here is the method:
as §1

Assay [19] deals with MRPL43, Q8N983. As for the experimental part:
as §1

Assay [20] deals with MRPS24, Q96EL2. As for the experimental part: as §1
The target of assay [21] is NOP53, Q9NZM5. As for the experimental part: as §1
In assay [22] the target is NOP56, O00567. Here is the method:
as §1

The target of assay [23] is PNISR, Q8TF01. As for the experimental part: as §1
The target of assay [24] is PRIM1, P49642. As for the experimental part:
as §1

The target in assay [25] is PSMD8, P48556. As for the experimental part: as §1
Assay [26] addresses PYM1, Q9BRP8. Here is the method:
as §1

For assay [27], the target named is RCC2, Q9P258. Here is the method:
as §1

The target in assay [28] is RRP12, Q5JTH9. As for the experimental part:
as §1

Assay [29] deals with RRP9, O43818. Here is the method:
as §1

Assay [30] addresses YY1, P25490. Here is the method: as §1
For assay [31], the target named is ZC3HAV1, Q7Z2W4. Here is the method:
as §1

Assay [32] addresses CALR, P27797. Here is the method:
as §1

Assay [33] concerns the target COMMD3-BMI1. As for the experimental part:
as §1

For assay [34], the target named is DDX20, Q9UHI6. As for the experimental part: as §1
The target of assay [35] is DDX54, Q8TDD1. Here is the method:
as §1

Assay [36] has as its target DHX40, Q8IX18. Here is the method:
as §1

In assay [37] the target is GFPT1, Q06210. As for the experimental part: as §1
For assay [38], the target named is INTS7, Q9NVH2. Here is the method:
as §1

The target of assay [39] is P4HB, P07237. As for the experimental part: as §1
Assay [40] deals with PIN4, Q9Y237. As for the experimental part:
as §1

Assay [41] addresses SAP18, O00422. As for the experimental part:
as §1

For assay [42], the target named is SAP30BP, Q9UHR5. Here is the method:
as §1

The target of assay [43] is SNRNP40, Q96DI7. As for the experimental part:
as §1

Assay [44] has as its target AURKB, Q96GD4. Here is the method:
as §1

In assay [45] the target is C1QBP, Q07021. Here is the method:
as §1

The target in assay [46] is CD2AP, Q9Y5K6. Here is the method: as §1
Assay [47] has as its target DIDO1, Q9BTC0. Here is the method:
as §1

Assay [48] concerns the target DMAC2, Q9NW81. As for the experimental part:
as §1

The target of assay [49] is EPB41L3, Q9Y2J2. Here is the method: as §1
The target in assay [50] is KLF16, Q9BXK1. Here is the method: as §1
In assay [51] the target is LAMA5, O15230. As for the experimental part:
as §1

In assay [52] the target is MDC1, Q14676. Here is the method: as §1
The target of assay [53] is MLF2, Q15773. Here is the method:
as §1

The target in assay [54] is MPDU1, O75352. As for the experimental part: as §1
Assay [55] addresses MRPL27, Q9P0M9. As for the experimental part:
as §1

The target of assay [56] is NAP1L1, P55209. Here is the method:
as §1

Assay [57] addresses NME1-NME2. Here is the method: as §1
Assay [58] concerns the target PDS5A, Q29RF7. As for the experimental part:
as §1

Assay [59] has as its target PWP1, Q13610. As for the experimental part:
as §1

In assay [60] the target is RAB14, P61106. Here is the method:
as §1

Assay [61] addresses RAB3GAP2, Q9H2M9. As for the experimental part: as §1
For assay [62], the target named is RCN2, Q14257. As for the experimental part: as §1
In assay [63] the target is SGPP1, Q9BX95. Here is the method:
as §1

Assay [64] deals with TMEM126A, Q9H061. As for the experimental part: as §1
The target in assay [65] is UBXN7, O94888. Here is the method: as §1
For assay [66], the target named is YTHDF3, Q7Z739. As for the experimental part:
as §1

In assay [67] the target is ZNF146, Q15072. As for the experimental part:
as §1

Assay [68] has as its target CDC73, Q6P1J9. Here is the method: as §1
The target of assay [69] is CLCC1, Q96S66. As for the experimental part: as §1
For assay [70], the target named is DNAJB11, Q9UBS4. As for the experimental part:
as §1

The target of assay [71] is FANCI, Q9NVI1. Here is the method:
as §1

Assay [72] has as its target KHSRP, Q92945. Here is the method:
as §1

Assay [73] deals with MRPS9, P82933. Here is the method: as §1
In assay [74] the target is MTDH, Q86UE4. Here is the method: as §1
Assay [75] concerns the target NUP85, Q9BW27. Here is the method: as §1
For assay [76], the target named is PSMC2, P35998. Here is the method: as §1
For assay [77], the target named is RPS17, P08708. As for the experimental part: as §1
The target in assay [78] is SEMG2, Q02383. Here is the method: as §1
In assay [79] the target is SMC1A, Q14683. Here is the method:
as §1

Assay [80] has as its target SREK1, Q8WXA9. Here is the method: as §1
In assay [81] the target is SRI, P30626. Here is the method: as §1
Assay [82] deals with TRIM26, Q12899. As for the experimental part:
as §1

The target of assay [83] is TXNDC12, O95881. Here is the method: as §1
The target of assay [84] is URB2, Q14146. As for the experimental part: as §1
Assay [85] concerns the target WDCP, Q9H6R7. As for the experimental part: as §1
Assay [86] concerns the target XRCC5, P13010. Here is the method: as §1

Turning to PRCRGGPGAAAVWAR [RAB12], the “PRISMA enrichment of interactor (log2)” value is 5.09 in assay [1]; 5.9 in assay [2]; 4.37 in assay [3]; 8.84 in assay [4]; 4.3 in assay [5]; 5.16 in assay [6]. In addition, the “PRISMA enrichment of interactor (log2)” value is 8.08 in [7], 4.07 in assay [8], 4.8 in assay [9] and 4.79 in assay [10].

With MARACRVTAPPPAAA [THAP7], the “PRISMA enrichment of interactor (log2)” value in assay [11] worked out at 4.67; in assay [12], 4.8; in assay [13] it was 5.99; in assay [14] it was 6.32; in [15], 5.15; in [16], 6.88. Also, the “PRISMA enrichment of interactor (log2)” value is 4.44 in [17]; 5.51 in [18]; 6.62 in assay [19]; 4.96 in assay [20]; 5.69 in assay [21]; 5.19 in [22]. In addition, the “PRISMA enrichment of interactor (log2)” value turned out to be 4.47 in assay [23]; 5.08 in [24]; 8.72 in [25]; 6.2 in [26]; 4.94 in [27]; 6.01 in assay [28]. Further, the “PRISMA enrichment of interactor (log2)” value in assay [29] came to 6.62; in assay [30] it was 7.11; in [31], 5.02.

Turning to SVYRPCTSPGRFFHN [EBAG9], the “PRISMA enrichment of interactor (log2)” value in assay [11] turned out to be 6.32; in assay [32], 5.98; in assay [33], 4.08; in [34], 5.71; in assay [35], 5.55; in [36], 5.36. Also, the “PRISMA enrichment of interactor (log2)” value was 4.7 in assay [37]; 8.69 in assay [38]; 4.9 in [39]; 4.38 in assay [40]; 4.92 in [41]; 5.38 in assay [42]. In addition, in assay [43], the “PRISMA enrichment of interactor (log2)” value was 5.49.

For RLPQATARRGTPSRA [SLCO5A1], the “PRISMA enrichment of interactor (log2)” value in assay [44] stood at 6.71; in assay [45] it was 6.74; in assay [46], 6.3; in [47], 4.29; in assay [48], 5.47; in assay [49], 3.92. Besides, the “PRISMA enrichment of interactor (log2)” value stood at 9.28 in assay [50]; 6.14 in assay [51]; 7.49 in assay [52]; 4.23 in assay [53]; 5.17 in assay [54]; 8.11 in [55]. The “PRISMA enrichment of interactor (log2)” value in assay [56] is 5.27 ± 0.89; in [57] it was 7.02; in [58] it was 6.86; in assay [59] it was 4.67; in assay [60], 5.16; in [61] it was 5.51. Besides, the “PRISMA enrichment of interactor (log2)” value in assay [62] was found to be 4.64; in assay [63] it was 5.08; in assay [64], 8.66; in [65], 4.89; in assay [66] it was 4.41; in [67] it was 8.69.

As to DSYSLDVHGGRRTAA [PVT1], the “PRISMA enrichment of interactor (log2)” value stood at 6 in assay [11]; 5.79 in [68]; 4.17 in assay [69]; 5.33 in [70]; 6.27 in assay [71]; 7.09 in assay [3]. In addition, the “PRISMA enrichment of interactor (log2)” value in assay [72] came out at 5.87; in assay [73], 5.87; in assay [74], 5.84; in assay [75], 8.01; in assay [76] it was 6.89; in assay [62], 6.64. Further, the “PRISMA enrichment of interactor (log2)” value is 5.5 in assay [77]; 6.57 in [78]; 5.81 in assay [79]; 5.15 in assay [80]; 5.28 in assay [81]; 4.9 in [82]. In addition, the “PRISMA enrichment of interactor (log2)” value came out at 5.55 in assay [83], 6.86 in [84], 5.75 in assay [85] and 5.41 in [86].
